Earlier results as cited in PMC5716539, “The acute glucose lowering effect of specific GPR120 activation in mice is mainly driven by glucagon-like peptide 1” (PLoS ONE, 2017).

Test system: Caco-2 cells
Settings: cited from earlier work

## Cc1ccc(-c2ccc(F)cc2COc2ccc(CCC(=O)O)cc2)cc1 [TUG-891]
  β-arrestin-2 recruitment in Caco-2 cells: recruited β-arrestin-2
